AC50 data for 59 compounds are collected here from PubChem BioAssay AID493014 (National Center for Advancing Translational Sciences (NCATS), 2011).

Some of the results follow. Shown are side measurements of this screen, not its main read-out; they come without a call. The list favours compounds with an active or inconclusive main result. Words in brackets tell the shape of the fitted curve; partial curves, single points and poor fits give uncertain potencies.

This assay can be described thus: qHTS Assay to Find Inhibitors of Chronic Active B-Cell Receptor Signaling. To be noted: ABC-DLBCL IkBa-CBG/CBR reporter, luminescence ratio (green luciferase fused to IkBa over red control in TMD8 lymphoma cells), 4 h. In a few lines:
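Concentration-response series (up to 46 uM) were applied to TMD8 dual-reporter cells for 4 h at 37C with doxycycline. Green/red ratio, after filter-overlap correction, defined %Activity; red signal alone was normalised to basal cells and zero luminescence.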
In general terms: In qHTS, concentration-response curves come from the screen itself.

The mark [1] stands for this setting: measured here: CBR red luminescence, cell number.
Where [2] appears, read: measured here: IkBa-CBG green luminescence.

With `COc1ccccc1-c1nnc(NC(=O)c2ccc(S(=O)(=O)N3CCCC3)cc2)o1`, under setting [1], the AC50 is 11.2 µM [falling, partial curve, poor fit].
On to `C[C@]12c3[nH]c4cc(-c5ccco5)ccc4c3CCN1C(=O)[C@@H](CC(=O)NCCC1=CCCCC1)C[C@@H]2C(=O)N1CCCCC1`, for which the AC50 under setting [1] was 18.4 µM [falling, single point].
As to `CC(Oc1ccc(F)cc1)C(=O)Nc1nc(-c2ccccn2)cs1` (stereo not drawn), the AC50 by setting is: under setting [1], 18.4 µM [rising, single point]; under setting [2], 18.4 µM [falling, partial curve, poor fit].
In the case of `O=c1ncn(-c2ccc(F)cc2)c2ncccc12`, the AC50 under setting [1] is 11.6 µM [rising, partial curve, poor fit].
With `CCn1c(SCC(=O)N2CCCCC2)nc2c(c1=O)SCC2`, the concentration at half-maximal activity (AC50) under setting [1] is 7.08 µM [falling, partial curve].
The same measure, in the same setting: the same measure for `CC(NC(=O)Cc1cccc(C(F)(F)F)c1)c1ccc(F)cc1` (stereo not drawn): 35.5 µM [falling, single point]; for `COc1cccc(C(=O)Nc2ccc3ccccc3c2)c1`: 14.1 µM [falling, partial curve, poor fit]; for `CCOC(=O)c1cc(-c2ccccc2)nn1CC1CC(c2ccc(OC)cc2)=NO1` (stereo not drawn): 25.9 µM [rising, single point].
On the same count and under the same terms, the same measure for `c1ccc(-c2noc(COc3ccc4c(c3)OCO4)n2)cc1`: 1.84 µM [falling, partial curve, poor fit]; for `CC(=C\c1ccccc1)/C=C1/SC(=S)N(CCC(=O)Nc2ccccn2)C1=O`: 3.98 µM [falling, partial curve, poor fit].
Consider `CCCNC1=C(N(C(C)=O)c2cccc(F)c2)C(=O)c2ccccc2C1=O`, for which the AC50 under setting [1] was 23.1 µM [falling, single point].
As to `CC1CCc2sc(C(=O)Nc3ccc(N4CCOCC4)cc3)cc2C1` (stereo not drawn), under setting [1], the AC50 was 0.447 µM [rising, full curve].
In the case of `C[C@H](CO)N1C[C@H](C)[C@H](CN(C)S(=O)(=O)c2cn(C)cn2)Oc2ccc(NC(=O)Nc3ccc(C(F)(F)F)cc3)cc2CC1=O`, the AC50 runs as follows: under setting [1], 20.6 µM [rising, partial curve]; under setting [2], 20.6 µM [falling, single point].
Regarding `O=C(NC1CCCCC1)C(c1ccc(F)cc1)N(C(=O)c1csnn1)C1CCCC1` (stereo not drawn), the AC50 under setting [1] was 17.8 µM [falling, partial curve, poor fit].
For the compound `CC(NS(=O)(=O)c1ccccc1)C(c1cccs1)N1CCN(c2ccccc2)CC1` (stereo not drawn), under setting [1], the AC50 was 23.1 µM [falling, partial curve, poor fit].
As for `CCOC(=O)c1[nH]c(C)c(C(=O)c2cc(F)ccc2F)c1C`, the AC50 under setting [2] was 20.6 µM [falling, partial curve].
Regarding `CCOC(=O)C1CCN(C(=O)c2cc(C)n(C(C)(C)C)n2)CC1`, the AC50 under setting [1] was 17.8 µM [rising, single point].
On to `O=C(NCc1ccc2c(c1)OCO2)C1CCCN1C(=O)Nc1cccc(Cl)c1` (stereo not drawn), for which the concentration at half-maximal activity (AC50) under setting [1] is 6.51 µM [rising, single point].
On the same count and under the same terms, the same measure for `Brc1cc2c(cc1/C=N/Nc1nc(N3CCOCC3)nc(N3CCOCC3)n1)OCO2`: 0.651 µM [rising, full curve, poor fit]; for `CC(=O)N(C1=C(Cl)C(=O)c2ccccc2C1=O)c1ccc(C(=O)O)cc1`: 35.5 µM [falling, single point].
`CC(=O)Oc1cc(C)cc2oc(=O)cc(-c3ccccc3)c12`: the AC50 under setting [2] was 11.2 µM [falling, partial curve, poor fit].
Regarding `Cc1ccc(C2=NN(C(=S)Nc3ccccc3)C(c3ccco3)C2)cc1` (stereo not drawn), under setting [1], the AC50 was 1.12 µM [falling, full curve, poor fit].
Regarding `Cc1ccc(S(=O)(=O)/N=C2/C=C(Sc3ncn[nH]3)C(=O)c3ccccc32)c(C)c1`, the AC50 under setting [1] is 3.26 µM [falling, partial curve, poor fit].
Consider `CCN(CC)S(=O)(=O)c1cccc(C(=O)N/N=C/c2ccc([N+](=O)[O-])o2)c1`, for which the AC50 under setting [1] is 14.1 µM [falling, single point].
The same measure, in the same setting: the same measure for `CSc1cccc(NC(=S)N(CCCN2CCCC(C)C2)Cc2cccs2)c1` (stereo not drawn): 7.94 µM [falling, partial curve]; for `CCOc1ncccc1C(=O)Nc1ccc(OC)c(S(=O)(=O)N2CCCCC2)c1`: 0.398 µM [falling, full curve, poor fit]; for `CC(CC(=O)C1C(C)C=CCC1(C)C)NNC(N)=O` (stereo not drawn): 15.8 µM [rising, partial curve, poor fit].
For `O=C(Cc1noc2ccccc12)Nc1ccc(Cl)cc1`, under setting [1], the AC50 is 6.51 µM [rising, single point].
As for `COc1cc(OC)c(C(=O)Nc2cccc(C(C)=O)c2)cc1OC`, the AC50 under setting [1] was 2.59 µM [rising, single point].
For the compound `COc1ccc(CN(C)S(=O)(=O)c2nnc(NC(=O)c3ccc(C)cc3)s2)cc1OC`, the AC50 under setting [1] is 25.1 µM [rising, single point].
For `CN(C)CC(C)(C)CNS(=O)(=O)c1cccc2nsnc12`, the AC50 under setting [1] was 11.6 µM [rising, partial curve, poor fit].
`O=C(Cn1ncn2c(cc3ccccc32)c1=O)NCCc1cccs1`: the AC50 under setting [1] was 1.78 µM [rising, partial curve, poor fit].
Still for that read-out and setting: the figure for `NNc1nc2c(-c3cccc(C(F)(F)F)c3)nnn2c2ccccc12` is 22.4 µM [falling, single point].
As to `CC[C@@H]1C=C(C)C[C@H](C)C[C@H](OC)[C@H]2O[C@@](O)(C(=O)C(=O)N3CCCC[C@H]3C(=O)O[C@H](/C(C)=C/[C@@H]3CC[C@@H](O)[C@H](OC)C3)[C@H](C)[C@@H](O)CC1=O)[C@H](C)C[C@@H]2OC`, the AC50 under setting [1] was 29.1 µM [falling, single point].
Still for that read-out and setting: the same measure for `Cc1ccc(S(=O)(=O)NC(=O)c2ccccc2)cc1C(C)C`: 1.12 µM [rising, partial curve, poor fit].
Consider `COc1cc(NC(C)CCc2ccccc2)cc(OC)c1OC` (stereo not drawn), for which the AC50 under setting [1] was 14.1 µM [rising, partial curve, poor fit].
`Cc1cc(-c2nnnn2-c2cc(Cl)cc(Cl)c2)no1`: the AC50 under setting [1] is 1.58 µM [rising, full curve, poor fit].
Regarding `CCN(CC)C(=O)CSCc1cnn(-c2ccccc2)c1-n1cccc1`, the AC50 by setting is: under setting [1], 16.4 µM [falling, partial curve, poor fit]; under setting [2], 7.31 µM [rising, partial curve, poor fit].
On to `Cc1ccc(Cn2ncc3c(NN)ncnc32)cc1`, for which, under setting [1], the AC50 was 35.5 µM [falling, single point].
Consider `CCOC(=O)C1=C(C)NC(C)=C(C(=O)OCC)C1C(=O)OCC(=O)NC(C)c1ccccc1` (stereo not drawn), for which the AC50 under setting [1] was 2.06 µM [rising, full curve, poor fit].
For the compound `COc1ccc(C2=NN(C(=O)c3cccnc3)C(c3ccccc3)C2)cc1` (stereo not drawn), the AC50 under setting [1] is 16.4 µM [rising, partial curve, poor fit].
Regarding `COCCn1c(C)cc(C(=O)COC(=O)c2n[nH]c3ccccc23)c1C`, the AC50 under setting [1] is 8.2 µM [falling, partial curve].
On the same count and under the same terms, the figure for `CN(Cc1ccccc1)S(=O)(=O)c1ccc(N2CCCC2=O)cc1` is 29.1 µM [rising, single point].
Consider `O=C(CNC(=O)c1ccc(Br)cc1)N/N=C/c1cccnc1`, for which the AC50 under setting [1] is 11.2 µM [rising, partial curve, poor fit].
As for `CCCn1c(N)c(C(=O)CN(C)CC(=O)Nc2ccccc2C(F)(F)F)c(=O)[nH]c1=O`, the AC50 under setting [1] was 23.1 µM [rising, single point].
Still for that read-out and setting: the figure for `COCC(C)n1c(C)cc(C(=O)CSc2nc3ccccc3c(=O)[nH]2)c1C` (stereo not drawn) is 7.94 µM [falling, full curve, poor fit]; for `O=C1NC[C@H](c2ccccc2)OC(=O)[C@@H](Cc2ccc(F)cc2)C/C=C\C[C@H]1CC(=O)N(CCO)Cc1ccccc1` it is 18.4 µM [falling, single point]; for `CCOC(=O)c1c(C)[nH]c(C)c1C(=O)COC(=O)c1ccc(Cl)nc1` it is 3.26 µM [rising, partial curve, poor fit].
For the compound `CC1(OC(=O)C2CCCC2)C(=O)C=C2C=C(c3ccsc3)N(Cc3ccccc3)C=C2C1=O` (stereo not drawn), the AC50 under setting [1] is 2.82 µM [rising, partial curve, poor fit].
Take `CCNc1nc(N)nc(Oc2ccc(C(=O)OC)cc2)n1`: under setting [1], the AC50 was 5.17 µM [rising, partial curve, poor fit].
Turning to `O=S(=O)(Nc1cccc(-c2ccc3nncn3n2)c1)c1cccc(F)c1`, the AC50 under setting [2] was 18.4 µM [falling, partial curve, poor fit].
On to `Cc1ccc([N+](=O)[O-])cc1N=Nc1c(C)[nH]n(C(N)=S)c1=O`, for which the AC50 under setting [2] is 5.62 µM [falling, single point].
As for `Cc1onc(-c2ccccc2)c1CNS(=O)(=O)c1ccccc1`, the concentration at half-maximal activity (AC50) under setting [1] is 11.2 µM [falling, partial curve].
In the case of `COC(=O)CN1C(C)=Nc2ccc(C)cc2C1c1ccccc1` (stereo not drawn), the AC50 under setting [1] was 7.08 µM [rising, partial curve, poor fit].
In the case of `O=C(N/N=C/c1ccccn1)c1cc(-c2ccncc2)nc2ccccc12`, the concentration at half-maximal activity (AC50) is 29.1 µM [rising, single point] under setting [1] and 20.6 µM [falling, single point] under setting [2].
Turning to `O=[N+]([O-])c1ccc2nc(SCc3cn4ccccc4n3)[nH]c2c1`, under setting [1], the AC50 is 0.13 µM [rising, full curve].
On to `CCOC(=O)C(=O)Nc1ccc(F)cc1`, for which the AC50 under setting [1] is 6.51 µM [falling, partial curve].
Take `CCOC(=O)C1CCN(C(=O)Nc2ccc(OC)c(OC)c2)CC1`: the AC50 under setting [1] is 2.31 µM [rising, partial curve, poor fit].
With `CC1(C)CC(=O)C=C(c2ccc(-c3ccccc3)cc2)C1`, under setting [1], the AC50 was 9.2 µM [rising, partial curve, poor fit].

As usually defined, the AC50 is the concentration at which the activity in the assay is half-maximal.
